{
  "source": "paper PMC9723947",
  "about": "“Ornate, large, extremophilic (OLE) RNA forms a kink turn necessary for OapC protein recognition and RNA function”",
  "key": {"[1]": {"target": "T1, YbxF/OapC WT (Bacillus halodurans C-125) (UniProt Q9Z9M0)", "T1 sequence (looked up)": "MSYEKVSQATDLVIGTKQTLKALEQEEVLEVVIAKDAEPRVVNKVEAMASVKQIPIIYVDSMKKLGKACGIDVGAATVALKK", "assay": "filter binding", "conditions": "Filter binding: 20 mM Tris-HCl pH 7.5, 150 mM NaCl, 10 mM MgCl2, 1 mM TCEP, ~20 C, 15 min, ~10 pM RNA, recombinant protein, residues 1-82, protein details: N-terminal His6 + PreScission (3C) site, label: 5' 32P"}, "[2]": {"target": "T2, YbxF/OapC G15D (Bacillus halodurans C-125) (UniProt Q9Z9M0)", "T2 sequence (looked up, limits assumed)": "T1 sequence (looked up) with G15D", "assay": "filter binding", "conditions": "Filter binding: 20 mM Tris-HCl pH 7.5, 150 mM NaCl, 10 mM MgCl2, 1 mM TCEP, ~20 C, 15 min, ~10 pM RNA; recombinant protein; protein details: N-terminal His6 + PreScission (3C) site; label: 5' 32P; probe letters rebuilt from the primers and the genome"}},
  "note": "Where a chain is given by its changes, count along the chain named. Negatives hold for the conditions tested. For some assays here: At least one verdict was read from the data and is not stated in words by the source. Where a protein sequence is shown, tags need not be part of it. The exact form of at least one protein or probe is not confirmed. For some assays here: Weaker means in comparison with the reference protein, sequence or condition of that experiment.",
  "data": [
    {"sequence": "GGAACGAUGAAGCUCCCGAAAGGGAGAAAAGGUA [OLE k-turn U84A]", "values": [
      {"measurement": "binding result", "setting": "[1]; little or none at 1 uM protein, binds at higher concentration", "value": "binds more weakly"}
    ]},
    {"sequence": "GGAUCGAUGAAGCUCCUUGUGAUGGCUUGAGGCGCCCAGCCUUGGGUCAUUGCUGGGAGAAA [OLE83-142]", "values": [
      {"measurement": "binding result", "setting": "[1]", "value": "no binding"}
    ]},
    {"sequence": "GGUGUCUUUUAGAAUAAGAGUGGUGCAGUAUUCUAGUCAAUCCUCCAUUCUUGAAGGCGGGGCUAAAAAUCCGCCAAAGGGCACAUCGAUGAAGCUCCUUGUGAUGGCUUGAGGCGCCCAGCCUUGGGUCAUUGCUGGGAGAAAAGGUAGUAGGGCGAUCCACAAAGGCAUGUGGGCGAUGACCCUCCUACUGUGGAGGCCUUUUUCUCUGCUGCUUAUGUAUGGACAUAGGGCAAGAGCAAAGGGUAUGAACCUGCGAAGGCAAGCUAGGGAGCUUGUCAGCAGCGUAGCCUGCCUUGAGUGGAGUAGAGGGGAUUAUGGGUUUUGAAGCAAUCCGCUGUCGGCCAACAGCCAUUGCCUCUCUAGUACCAUAUGAAAUCUGCUCUGCAAAAGAGGAUAAGAGAAUGGCAAGGGAUUGCCGAGGAAAACUCCUAGACUGUUCCAUGGGGACAUUUAAAGAGGAUUACAGUGUGGACUAAGUGGUAAUCCAGUCUGGCGUUUGGUGACAGCGCCAAGUUCAACAUAAAGGGAAACCGCCAGCGCGGCGACGCACUGGUGUUGAAUUGGGAAAUCCUACUGGACCUAAGCCACAGAGUUUACUCUUUAAAUGACCACUCUCAUACAUACGCAGUCGGAACG [OLE1-637 (full-length OLE RNA)]", "values": [
      {"measurement": "binding result", "setting": "[1]; probe letters rebuilt from the primers and the genome", "value": "binds"},
      {"measurement": "binding result", "setting": "[2]", "value": "no binding"}
    ]},
    {"sequence": "GGAUCGAUGAAGCUCCUUGUGAUGGCUUGAGGCGCCCAGCCUUGGGUCAUUGCUGGG [OLE83-137]", "values": [
      {"measurement": "binding result", "setting": "[1]", "value": "no binding"}
    ]}
  ]
}
